{"sequences": {"note": "Amino acid sequences for entries named in this document (tags omitted). A change or cut given only in a name is not applied to a line headed by its entry.", "UniProt Q8N808": "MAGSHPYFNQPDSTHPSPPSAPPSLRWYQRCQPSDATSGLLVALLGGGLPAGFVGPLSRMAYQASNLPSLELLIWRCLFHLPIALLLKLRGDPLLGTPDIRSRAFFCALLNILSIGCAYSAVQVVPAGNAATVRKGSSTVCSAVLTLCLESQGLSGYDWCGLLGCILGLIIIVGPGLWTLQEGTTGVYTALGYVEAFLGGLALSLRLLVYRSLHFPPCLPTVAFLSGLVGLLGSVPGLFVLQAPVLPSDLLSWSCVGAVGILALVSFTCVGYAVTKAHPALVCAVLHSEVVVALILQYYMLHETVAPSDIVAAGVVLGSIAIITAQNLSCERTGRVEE"}, "source": "paper PMC11406361", "about": "“Several orphan solute carriers functionally identified as organic cation transporters: Substrates specificity compared with known cation transporters” (The Journal of Biological Chemistry, 2024)", "target": "SLC35G3 (Homo sapiens, UniProt Q8N808)", "experiment": "Uptake ratio screen, SLC35G3-overexpressing HEK293 over empty vector cells", "format": "cell-based", "design": "by amplifying the entire gene-of-interest within the HEK293 genome via a long-range PCR", "data": [{"compound": "COc1ccc(CC(C)NCC(O)c2ccc(O)c(NC=O)c2)cc1", "note": "(stereo not shown) [Formoterol]", "values": [{"measurement": "Uptake data for SLC35G3, mean value (fold-increase over empty vector control)", "result": 1.01}]}]}
